± gives the standard deviation. Only a part is listed here, and it is no random draw. Many entries were measured with a wide error. The list shows a part of the results.

Test [1] concerns MILI (PIWIL2) piRISC loaded with L1MC piRNA (26 nt). Briefly: pre-steady-state target cleavage rate (min^-1); higher = faster piRNA-guided slicing of the target. As to conditions: guide: L1MC piRNA 5'p-UAACUAAAUACUAUGCAAGCUGUAGG
Put shortly: (§1)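 At 33 °C in HEPES–potassium acetate buffer, a transcribed, DNA-blocked target RNA library […] was exposed for 0–8 or 0–960 min to 1 nM active affinity-purified piRISC carrying a single synthetic guide, with or without 500 nM GTSF1 partner protein. Uncleaved targets were sequenced and normalised to depth and to weakly complementary targets. With three trials pooled and k3 capped at 0.0001 min^-1, a burst-and-steady-state fit produced the pre-steady-state cleavage rate.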

Test [2] concerns EfPiwi piRISC loaded with L1MC piRNA (26 nt). Briefly: pre-steady-state target cleavage rate (min^-1); guide: L1MC piRNA 5'p-UAACUAAAUACUAUGCAAGCUGUAGG; higher = faster piRNA-guided slicing of the target. Summed up: as §1
For test [3], the system named is MIWI (PIWIL1) piRISC loaded with L1MC piRNA (30 nt). Briefly: pre-steady-state target cleavage rate (min^-1); MIWI and MILI are mouse PIWI proteins and EfPiwi is from a freshwater sponge; tags in brackets are library labels; higher = faster piRNA-guided slicing of the target. As to conditions: guide: L1MC piRNA 5'p-UAACUAAAUACUAUGCAAGCUGUAGGUCCU; auxiliary factor: none (no GTSF1). Put shortly: as §1
[4] abbreviates: auxiliary factor: 500 nM mouse GTSF1.
[5] abbreviates: auxiliary factor: none (no GTSF1).
The mark [6] stands for this setting: auxiliary factor: 500 nM Ephydatia muelleri Gtsf1.
Where [7] appears, read: auxiliary factor: none (no Gtsf1).

As to UCCUGGUACACCUUGCAUAGUAUUAAGUUA, the “pre-steady-state target cleavage rate” value in test [1] (setting [4]) was 0.218 ± 0.066; in test [1] (setting [5]), 0.00158 ± 0.0067; in test [2] (setting [6]), 0.00356 ± 0.0032; in test [2] (setting [7]) it was 0.000237 ± 0.046.

As to UCCUGGAUGUGCUUGCAUAGUUAUUAGUUA, the “pre-steady-state target cleavage rate” value in test [1] (setting [4]) was 0.00903 ± 0.0055; in test [1] (setting [5]) it was 0.00639 ± 0.0025; in test [2] (setting [6]) it was 0.00199 ± 0.0063; in test [2] (setting [7]) it was 0.000303 ± 0.034.

With UCCUCCUACAGGUUGCAUAGUAUUAAGUUA, the “pre-steady-state target cleavage rate” value in test [1] (setting [4]) worked out at 0.212 ± 0.027; in test [1] (setting [5]) it was 0.00545 ± 0.0022; in test [2] (setting [6]), 0.00576 ± 0.0023; in test [2] (setting [7]), 0.000585 ± 0.011.

Take UCCUGCUACAGCAUGCAUAGUAUUUAGAUA: the “pre-steady-state target cleavage rate” value in test [1] (setting [4]) came out at 0.179 ± 0.033; in test [1] (setting [5]), 0.0018 ± 0.0046; in test [2] (setting [6]), 0.00378 ± 0.0015; in test [2] (setting [7]) it was 0.000111 ± 0.039.

Regarding UCCUGGAACAGCUAGCAAAGUAUUUAGUUA, the “pre-steady-state target cleavage rate” value in test [1] (setting [4]) was 0.11 ± 0.013; in test [1] (setting [5]) it was 0.00729 ± 0.002; in test [2] (setting [6]), 0.00366 ± 0.0025; in test [2] (setting [7]), 0.000785 ± 0.0097.

In the case of UCCUGGUUGAGCUUGCAUAGUAUUUAGUAA, the “pre-steady-state target cleavage rate” value worked out at 0.196 ± 0.022 in test [1] (setting [4]), 0.00595 ± 0.0027 in test [1] (setting [5]), 0.00604 ± 0.0023 in test [2] (setting [6]) and 0.000652 ± 0.018 in test [2] (setting [7]).

Regarding UCCUGCAACAGCUUGCAUAGUAUUUACUUA, the “pre-steady-state target cleavage rate” value in test [1] (setting [4]) was determined as 0.122 ± 0.012; in test [1] (setting [5]), 0.00262 ± 0.0035; in test [2] (setting [6]), 0.00226 ± 0.003; in test [2] (setting [7]), 0.000212 ± 0.023.

UCCUGGUACAUGCUUGCAUAGUAUUUAGUUA: the “pre-steady-state target cleavage rate” value stood at 0.131 ± 0.018 in test [1] (setting [4]), 0.00627 ± 0.0036 in test [1] (setting [5]), 0.0077 ± 0.0034 in test [2] (setting [6]) and 0.00427 ± 0.0043 in test [2] (setting [7]).

As to UCCUGGAUGUGCUUGCAUAGUAUUUAGUCA, the “pre-steady-state target cleavage rate” value in test [1] (setting [4]) came to 0.117 ± 0.018; in test [1] (setting [5]) it was 0.00487 ± 0.0035; in test [2] (setting [6]), 0.00263 ± 0.0019; in test [2] (setting [7]), 0.000489 ± 0.017.

As for UCCUGGUACAGCUUGCAUAGUAUUUUGUUA, the “pre-steady-state target cleavage rate” value in test [1] (setting [4]) came out at 0.118 ± 0.024; in test [1] (setting [5]), 0.00398 ± 0.0037; in test [2] (setting [6]), 0.00618 ± 0.003; in test [2] (setting [7]), 0.00091 ± 0.013.

As to UCCUGGAACGGCUUGCAUAGUAUUUAGUUA, the “pre-steady-state target cleavage rate” value in test [1] (setting [4]) stood at 0.259 ± 0.017; in test [1] (setting [5]), 0.0129 ± 0.0024; in test [2] (setting [6]), 0.0243 ± 0.0075; in test [2] (setting [7]) it was 0.000931 ± 0.013.

With UCCUGGAACAGCUAGCUUAGUAUUUAGUUA, the “pre-steady-state target cleavage rate” value in test [1] (setting [4]) was 0.186 ± 0.015; in test [1] (setting [5]), 0.0065 ± 0.0023; in test [2] (setting [6]), 0.00846 ± 0.0037; in test [2] (setting [7]), 0.000702 ± 0.0089.

For the sequence UCCUGGUACAGCUUGCUUAGUUUUUAGUUA, the “pre-steady-state target cleavage rate” value in test [1] (setting [4]) was 0.0347 ± 0.011; in test [1] (setting [5]), 0.00709 ± 0.0023; in test [2] (setting [6]) it was 0.00346 ± 0.003; in test [2] (setting [7]) it was 0.000615 ± 0.021.

Take UCCUGGAUGAGCUUGCAUAGUAUUUACUAA: the “pre-steady-state target cleavage rate” value turned out to be 0.00674 ± 0.0044 in test [1] (setting [4]), 0.000912 ± 0.0073 in test [1] (setting [5]), 0.00198 ± 0.002 in test [2] (setting [6]) and 0.000465 ± 0.016 in test [2] (setting [7]).

For the sequence UCCUGGAAGUGCUUGCAUAGUAUUUUCAAA, the “pre-steady-state target cleavage rate” value was determined as 0.00163 ± 0.0063 in test [1] (setting [4]); 0.000731 ± 0.0069 in test [1] (setting [5]); 0.000991 ± 0.005 in test [3]; 0.000754 ± 0.0045 in test [2] (setting [6]); 0.000484 ± 0.012 in test [2] (setting [7]).

For UCCUGGAUGUCGAUGCAGUAGUAUUUAGUUA, the “pre-steady-state target cleavage rate” value is 0.00062 ± 0.013 in test [1] (setting [4]); 0.000121 ± 0.029 in test [1] (setting [5]); 0.000405 ± 0.019 in test [3]; 0.000762 ± 0.012 in test [2] (setting [6]); under 0.0001 in test [2] (setting [7]).

With UCCUGGAACAGCUUGCAUAGUAAUUUCAAA, the “pre-steady-state target cleavage rate” value in test [1] (setting [4]) turned out to be 0.0786 ± 0.026; in test [1] (setting [5]), 0.00107 ± 0.0074; in test [3] it was 0.00118 ± 0.0061; in test [2] (setting [6]), 0.00085 ± 0.004; in test [2] (setting [7]), 0.000409 ± 0.011.

On to UCCUGGAACAGCUUGCAUAGAUUUUACAAA, for which the “pre-steady-state target cleavage rate” value came out at 0.00713 ± 0.0045 in test [1] (setting [4]); 0.000556 ± 0.0076 in test [1] (setting [5]); 0.000592 ± 0.0069 in test [3]; 0.00312 ± 0.0047 in test [2] (setting [6]); 0.000304 ± 0.019 in test [2] (setting [7]).

On to UCCUGGUACAGCUUGCAGAGUAUUUAGUUA, for which the “pre-steady-state target cleavage rate” value in test [1] (setting [4]) was 0.121 ± 0.026; in test [1] (setting [5]), 0.00836 ± 0.0028; in test [2] (setting [6]), 0.00371 ± 0.0027; in test [2] (setting [7]), 0.000388 ± 0.023.

As for UCCUGGAUGAGCAUGCAUAGUAUUUACAAA, the “pre-steady-state target cleavage rate” value in test [1] (setting [4]) was determined as 0.0679 ± 0.018; in test [1] (setting [5]) it was 0.0019 ± 0.0041; in test [3], 0.00132 ± 0.005; in test [2] (setting [6]), 0.00229 ± 0.0027; in test [2] (setting [7]), 0.000244 ± 0.027.

With UCCUGGUACAGCUUGCAUAGUUUUUUCAAA, the “pre-steady-state target cleavage rate” value is 0.0153 ± 0.0075 in test [1] (setting [4]); 0.0016 ± 0.005 in test [1] (setting [5]); 0.000999 ± 0.006 in test [3]; 0.000722 ± 0.011 in test [2] (setting [6]); 0.000138 ± 0.067 in test [2] (setting [7]).

The values are drawn from the supplement of paper PMC10338343.
